Measured values from patent US12099068B2, “Biomarkers for graft-versus-host disease” (Incyte Corporation, priority 2018, dated 2024).

B1: CCL17 (protein, UniProt Q92583 24-94, looked up)
C-C motif chemokine 17: ARGTNVGRECCLEYFKGAIPLRKLKTWYQTSEDCSRDAIVFVTVQGRAICSDPNNKRVKNAVKYLQSLERS
B2: DNER (protein, UniProt Q8NFT8 35-737, looked up)
Delta and Notch-like …: NPVPAAPLSAPGPCAAQPCRNGGVCTSRPEPDPQHPAPAGEPGYSCTCPAGISGANCQLVADPCASNPCHHGNCSSSSSSSSDGYLCICNEGYEGPNCEQALPSLPATGWTESMAPRQLQPVPATQEPDKILPRSQATVTLPTWQPKTGQKVVEMKWDQVEVIPDIACGNASSNSSAGGRLVSFEVPQNTSVKIRQDATASLILLWKVTATGFQQCSLIDGRSVTPLQASGGLVLLEEMLALGNNHFIGFVNDSVTKSIVALRLTLVVKVSTCVPGESHANDLECSGKGKCTTKPSEATFSCTCEEQYVGTFCEEYDACQRKPCQNNASCIDANEKQDGSNFTCVCLPGYTGELCQSKIDYCILDPCRNGATCISSLSGFTCQCPEGYFGSACEEKVDPCASSPCQNNGTCYVDGVHFTCNCSPGFTGPTCAQLIDFCALSPCAHGTCRSVGTSYKCLCDPGYHGLYCEEEYNECLSAPCLNAATCRDLVNGYECVCLAEYKGTHCELYKDPCANVSCLNGATCDSDGLNGTCICAPGFTGEECDIDINECDSNPCHHGGSCLDQPNGYNCHCPHGWVGANCEIHLQWKSGHMAESLTNMPRHSLYIIIGALCVAFILMLIILIVGICRISRIEYQGSSRPAYEEFYNCRSIDSEFSNAIASIRHARFGKKSRPAMYDVSPIAYEDYSPDDKPLVTLIKTKDL
B3: RTN4R (protein, UniProt Q9BZR6 27-447, looked up)
Reticulon-4 receptor: CPGACVCYNEPKVTTSCPQQGLQAVPVGIPAASQRIFLHGNRISHVPAASFRACRNLTILWLHSNVLARIDAAAFTGLALLEQLDLSDNAQLRSVDPATFHGLGRLHTLHLDRCGLQELGPGLFRGLAALQYLYLQDNALQALPDDTFRDLGNLTHLFLHGNRISSVPERAFRGLHSLDRLLLHQNRVAHVHPHAFRDLGRLMTLYLFANNLSALPTEALAPLRALQYLRLNDNPWVCDCRARPLWAWLQKFRGSSSEVPCSLPQRLAGRDLKRLAANDLQGCAVATGPYHPIWTGRATDEEPLGLPKCCQPDAADKASVLEPGRPASAGNALKGRVPPGDSPPGNGSGPRHINDSPFGTLPGSAEPPLTAVRPEGSEPPGFPTSGPRRRPGCSRKNRTRSHCRLGQAGSGGGGTGDSEGS
B4: SIRPB1 (protein, UniProt O00241 30-398, looked up)
Signal-regulatory protein …: EDELQVIQPEKSVSVAAGESATLRCAMTSLIPVGPIMWFRGAGAGRELIYNQKEGHFPRVTTVSELTKRNNLDFSISISNITPADAGTYYCVKFRKGSPDDVEFKSGAGTELSVRAKPSAPVVSGPAVRATPEHTVSFTCESHGFSPRDITLKWFKNGNELSDFQTNVDPAGDSVSYSIHSTARVVLTRGDVHSQVICEIAHITLQGDPLRGTANLSEAIRVPPTLEVTQQPMRAENQANVTCQVSNFYPRGLQLTWLENGNVSRTETASTLIENKDGTYNWMSWLLVNTCAHRDDVVLTCQVEHDGQQAVSKSYALEISAHQKEHGSDITHEAALAPTAPLLVALLLGPKLLLVVGVSAIYICWKQKA
B5: EDIL3 (protein, UniProt O43854 24-480, looked up)
EGF-like repeat and discoidin …: DICDPNPCENGGICLPGLADGSFSCECPDGFTDPNCSSVVEVASDEEEPTSAGPCTPNPCHNGGTCEISEAYRGDTFIGYVCKCPRGFNGIHCQHNINECEVEPCKNGGICTDLVANYSCECPGEFMGRNCQYKCSGPLGIEGGIISNQQITASSTHRALFGLQKWYPYYARLNKKGLINAWTAAENDRWPWIQINLQRKMRVTGVITQGAKRIGSPEYIKSYKIAYSNDGKTWAMYKVKGTNEDMVFRGNIDNNTPYANSFTPPIKAQYVRLYPQVCRRHCTLRMELLGCELSGCSEPLGMKSGHIQDYQITASSIFRTLNMDMFTWEPRKARLDKQGKVNAWTSGHNDQSQWLQVDLLVPTKVTGIITQGAKDFGHVQFVGSYKLAYSNDGEHWTVYQDEKQRKDKVFQGNFDNDTHRKNVIDPPIYARHIRILPWSWYGRITLRSELLGCTEEE
B6: SULT2A1 (protein, UniProt Q06520 1-285, looked up)
Sulfotransferase 2A1: MSDDFLWFEGIAFPTMGFRSETLRKVRDEFVIRDEDVIILTYPKSGTNWLAEILCLMHSKGDAKWIQSVPIWERSPWVESEIGYTALSETESPRLFSSHLPIQLFPKSFFSSKAKVIYLMRNPRDVLVSGYFFWKNMKFIKKPKSWEEYFEWFCQGTVLYGSWFDHIHGWMPMREEKNFLLLSYEELKQDTGRTIEKICQFLGKTLEPEELNLILKNSSFQSMKENKMSNYSLLSVDYVVDKAQLLRKGVSGDWKNHFTVAQAEDFDKLFQEKMADLPRELFPWE
B7: PILRA (protein, UniProt Q9UKJ1 20-303, looked up)
Paired immunoglobulin-like …: QPSGSTGSGPSYLYGVTQPKHLSASMGGSVEIPFSFYYPWELATAPDVRISWRRGHFHRQSFYSTRPPSIHKDYVNRLFLNWTEGQKSGFLRISNLQKQDQSVYFCRVELDTRSSGRQQWQSIEGTKLSITQAVTTTTQRPSSMTTTWRLSSTTTTTGLRVTQGKRRSDSWHISLETAVGVAVAVTVLGIMILGLICLLRWRRRKGQQRTKATTPAREPFQNTEEPYENIRNEGQNTDPKLNPKDDGIVYASLALSSSTSPRAPPSHRPLKSPQNETLYSVLKA
B8: CA5A (protein, UniProt P35218 39-305, looked up)
Carbonic anhydrase 5A, …: CAWQTSNNTLHPLWTVPVSVPGGTRQSPINIQWRDSVYDPQLKPLRVSYEAASCLYIWNTGYLFQVEFDDATEASGISGGPLENHYRLKQFHFHWGAVNEGGSEHTVDGHAYPAELHLVHWNSVKYQNYKEAVVGENGLAVIGVFLKLGAHHQTLQRLVDILPEIKHKDARAAMRPFDPSTLLPTCWDYWTYAGSLTTPPLTESVTWIIQKEPVEVAPSQLSAFRTLLFSALGEEEKMMVNNYRPLQPLMNRKVWASFQATNEGTRS
B9: CLEC7A (protein, UniProt Q9BXN2 1-247, looked up)
C-type lectin domain family 7 …: MEYHPDLENLDEDGYTQLHFDSQSNTRIAVVSEKGSCAASPPWRLIAVILGILCLVILVIAVVLGTMAIWRSNSGSNTLENGYFLSRNKENHSQPTQSSLEDSVTPTKAVKTTGVLSSPCPPNWIIYEKSCYLFSMSLNSWDGSKRQCWQLGSNLLKIDSSNELGFIVKQVSSQPDNSFWIGLSRPQTEVPWLWEDGSTFSSNLFQIRTTATQENPSPNCVWIHVSVIYDQLCSVPSYSICEKKFSM
B10: LAIR1 (protein, UniProt Q6GTX8 22-287, looked up)
Leukocyte-associated …: QEEDLPRPSISAEPGTVIPLGSHVTFVCRGPVGVQTFRLERDSRSTYNDTEDVSQASPSESEARFRIDSVREGNAGLYRCIYYKPPKWSEQSDYLELLVKESSGGPDSPDTEPGSSAGPTQRPSDNSHNEHAPASQGLKAEHLYILIGVSVVFLFCLLLLVLFCLHRQNQIKQGPPRSKDEEQKPQQRPDLAVDVLERTADKATVNGLPEKDRETDTSALAAGSSQEVTYAQLDHWALTQRTARAVSPQSTKPMAESITYAAVARH
B11: KLK10 (protein, UniProt O43240 31-276, looked up)
Kallikrein-10: AEAALLPQNDTRLDPEAYGSPCARGSQPWQVSLFNGLSFHCAGVLVDQSWVLTAAHCGNKPLWARVGDDHLLLLQGEQLRRTTRSVVHPKYHQGSGPILPRRTDEHDLMLLKLARPVVLGPRVRALQLPYRCAQPGDQCQVAGWGTTAARRVKYNKGLTCSSITILSPKECEVFYPGVVTNNMICAGLDRGQDPCQSDSGGPLVCDETLQGILSWGVYPCGSAQHPAVYTQICKYMSWINKVIRSN
B12: PAM (protein, UniProt P19021 31-973, looked up)
Peptidyl-glycine …: FKETTRPFSNECLGTTRPVVPIDSSDFALDIRMPGVTPKQSDTYFCMSMRIPVDEEAFVIDFKPRASMDTVHHMLLFGCNMPSSTGSYWFCDEGTCTDKANILYAWARNAPPTRLPKGVGFRVGGETGSKYFVLQVHYGDISAFRDNNKDCSGVSLHLTRLPQPLIAGMYLMMSVDTVIPAGEKVVNSDISCHYKNYPMHVFAYRVHTHHLGKVVSGYRVRNGQWTLIGRQSPQLPQAFYPVGHPVDVSFGDLLAARCVFTGEGRTEATHIGGTSSDEMCNLYIMYYMEAKHAVSFMTCTQNVAPDMFRTIPPEANIPIPVKSDMVMMHEHHKETEYKDKIPLLQQPKREEEEVLDQGDFYSLLSKLLGEREDVVHVHKYNPTEKAESESDLVAEIANVVQKKDLGRSDAREGAEHERGNAILVRDRIHKFHRLVSTLRPPESRVFSLQQPPPGEGTWEPEHTGDFHMEEALDWPGVYLLPGQVSGVALDPKNNLVIFHRGDHVWDGNSFDSKFVYQQIGLGPIEEDTILVIDPNNAAVLQSSGKNLFYLPHGLSIDKDGNYWVTDVALHQVFKLDPNNKEGPVLILGRSMQPGSDQNHFCQPTDVAVDPGTGAIYVSDGYCNSRIVQFSPSGKFITQWGEESSGSSPLPGQFTVPHSLALVPLLGQLCVADRENGRIQCFKTDTKEFVREIKHSSFGRNVFAISYIPGLLFAVNGKPHFGDQEPVQGFVMNFSNGEIIDIFKPVRKHFDMPHDIVASEDGTVYIGDAHTNTVWKFTLTEKLEHRSVKKAGIEVQEIKEAEAVVETKMENKPTSSELQKMQEKQKLIKEPGSGVPVVLITTLLVIPVVVLLAIAIFIRWKKSRAFGDSEHKLETSSGRVLGRFRGKGSGGLNLGNFFASRKGYSRKGFDRLSTEGSDQEKEDDGSESEEEYSAPLPALAPSSS
B13: SPON2 (protein, UniProt Q9BUD6 27-331, looked up)
Spondin-2: QPLGGESICSARALAKYSITFTGKWSQTAFPKQYPLFRPPAQWSSLLGAAHSSDYSMWRKNQYVSNGLRDFAERGEAWALMKEIEAAGEALQSVHAVFSAPAVPSGTGQTSAELEVQRRHSLVSFVVRIVPSPDWFVGVDSLDLCDGDRWREQAALDLYPYDAGTDSGFTFSSPNFATIPQDTVTEITSSSPSHPANSFYYPRLKALPPIARVTLVRLRQSPRAFIPPAPVLPSRDNEIVDSASVPETPLDCEVSLWSSWGLCGGHCGRLGTKSRTRYVRVQPANNGSPCPELEEEAECVPDNCV

System: plasma proteins
Assay: OLINK proximity extension assay of baseline plasma, CR compared to PD/Death, updated classification, Example 5 (Table 11)
Type: in vivo, human
Details: itacitinib 200 or 300 mg QD plus corticosteroids, response at day 28

Going from B1 to B2, the “Fold Change, Up-Regulated in CR Compared to PD/Death” value falls from 6.4545 to 1.4054.

First: B11
Second: B12
The “Fold Change, Up-Regulated in CR Compared to PD/Death” value of the first is lower: 1.2844 for the first, 1.3347 for the second.

Going from B3 to B4, the “Fold Change, Down-Regulated in CR Compared to PD/Death” value (from here on “Fold Change, Down-Regulated”) falls from −1.6966 to −1.9684.

First: B5
Second: B6
The “Fold Change, Down-Regulated” value of the first is higher: −1.2737 for the first, −4.7009 for the second.

Compared with B7, B8 is lower in “Fold Change, Down-Regulated” value: −1.5248 for the first, −7.4693 for the second.

Going from B9 to B10, the “Fold Change, Down-Regulated” value falls from −1.7189 to −1.7352.

In the case of B13, the “Fold Change, Down-Regulated” value is reported as −1.212.

System: plasma proteins
Assay: Proteins of Table 11 stably expressed in complete responders between days 1 and 28, Example 5 (Table 12)
Type: in vivo, human
Details: day 1 vs day 28
Protocol: Due to the limited sample size, steroid-naive (N=10) and steroid-refractory (N=18) patients were combined for further analysis. Broad proteomic analysis of over 1000 proteins was conducted by OLINK Proteomics (Watertown, MA) using a proximity extension assay as described by the manufacturer. Data are presented as normalized protein expression (NPX) in log 2 scale. Statistical differences were evaluated using unpaired and paired t tests, one-way […] (ANOVA), and Pearson Correlation. Significance was conferred when P<0.05.

Compared with B6, B8 is lower in “Fold Change (D1 vs D28), proteins Down-Regulated in CR Compared to PD/Death” value: 1.2251 for the first, −1.1295 for the second.
